Source: the supplement of paper PMC9226226
Where “and” joins values, the source holds several entries; their conditions need not be identical. Identical values can stand only once. This is one part of the list. Several reference drugs read as weak here; read low effects with care.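 The cells are human mesenchymal stem cells that lack the Werner syndrome gene and age prematurely. Growth was tracked by automated live-cell imaging in three biological repeats, and the twenty drugs that most raised growth over vehicle were taken forward, with no fixed cutoff stated.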

Tested on: Werner syndrome hMSCs (WRN-/-)
Assay: relative cell density (fold change vs vehicle control); higher = more proliferation (geroprotective)
Settings: concentration (umol/L): 1, 6 days

Structure (SMILES) | relative cell density (vehicle: DMSO) | relative cell density (vehicle: Water)
COc1cc(Nc2c(C#N)cnc3cc(OCCCN4CCN(C)CC4)c(OC)cc23)c(Cl)cc1Cl | 1.04 | –
Cc1cc(C#N)cc(C)c1Oc1nc(Nc2ccc(C#N)cc2)nc(N)c1Br | 1.03 | –
Cc1nnc(SCC2=C(C(=O)O)N3C(=O)[C@@H](NC(=O)Cn4cnnn4)[C@H]3SC2)s1 | 1.18 | –
O=c1[nH]c(=O)n([C@H]2C[C@H](O)[C@@H](CO)O2)cc1C(F)(F)F | 1.05 | –
CC1(C)S[C@@H]2[C@H](NC(=O)COc3ccccc3)C(=O)N2[C@H]1C(=O)O | – | 1.16
c1cc(CN2CCCNCCNCCCNCC2)ccc1CN1CCCNCCNCCCNCC1 | – | 1.71
CN(Cc1ccc(C(C)(C)C)cc1)Cc1cccc2ccccc12 | 1.15 | –
Cc1ccccc1C(=O)Nc1ccc(C(=O)N2CCCC(N(C)C)c3ccccc32)cc1 (stereo unspecified) | – | 1.15
S=c1[nH]cnc2nc[nH]c12 | 1.07 | –
Cc1cccc(Nc2ccncc2S(=O)(=O)NC(=O)NC(C)C)c1 | – | 0.792
CC1(C)O[C@@H]2[C@@H](CO[C@@]3(COS(N)(=O)=O)OC(C)(C)O[C@@H]23)O1 | 1.34 | –
COc1cc(NS(=O)(=O)c2ccc(N)cc2)nc(OC)n1 | 1.31 | –
CCNC(=O)[C@@H]1CCCN1C(=O)[C@H](CCCNC(=N)N)NC(=O)[C@H](CC(C)C)NC(=O)[C@@H](CC(C)C)NC(=O)[C@H](Cc1ccc(O)cc1)NC(=O)[C@H](CO)NC(=O)[C@H](Cc1c[nH]c2ccccc12)NC(=O)[C@H](Cc1c[nH]cn1)NC(=O)[C@@H]1CCC(=O)N1 | 1.04 | –
O=C1N=C(O)NC1(c1ccccc1)c1ccccc1 | 1.1 | –
CC(C)Cn1cnc2c(N)nc3ccccc3c21 | – | 0.753
NC(=O)N1c2ccccc2CC(=O)c2ccccc21 | 1.42 | –
NC1=NCC2c3ccccc3Cc3ccccc3N12 (stereo unspecified) | 1.16 | –
CCCNC(C)C(=O)Nc1c(C)csc1C(=O)OC (stereo unspecified) | 0.988 | –
CNCc1ccc(-c2[nH]c3cc(F)cc4c3c2CCNC4=O)cc1 | 0.709 | –
Cc1cn([C@H]2C[C@H](N=[N+]=[N-])[C@@H](CO)O2)c(=O)[nH]c1=O | 0.959 | –
COc1ccc([C@@H]2Sc3ccccc3N(CCN(C)C)C(=O)[C@@H]2OC(C)=O)cc1 | 0.93 | –
NS(=O)(=O)Cc1noc2ccccc12 | 1.09 | –
CC(C[N+](C)(C)C)OC(N)=O (stereo unspecified) | 1.29 | –

Structure (SMILES) | relative cell density (vehicle: DMSO) | relative cell density (vehicle: Water)
NCCC(O)(P(=O)(O)O)P(=O)(O)O | – | 0.94
Cc1ccc(Sc2ccccc2N2CCNCC2)c(C)c1 | 1.16 | –
NCC(=O)CCC(=O)O | 0.974 | –
O=C(CCCN1CCC(O)(c2ccc(Cl)cc2)CC1)c1ccc(F)cc1 | 1.24 | –
O=C(O)C[C@H](O)C[C@H](O)/C=C/c1c(C2CC2)nc2ccccc2c1-c1ccc(F)cc1 | 0.386 | –
Cc1ccc(C)c(OCCCC(C)(C)C(=O)O)c1 | 1.02 | –
CC1(C)[C@@H](O)CC[C@]2(C)[C@H]3C(=O)C=C4[C@@H]5C[C@@](C)(C(=O)O)CC[C@]5(C)CC[C@@]4(C)[C@]3(C)CC[C@@H]12 | 1.08 | –
COC(=O)CCc1ccc(OCC(O)CNC(C)C)cc1 (stereo unspecified) | 1.22 | –
NCCS | 1.17 | –
COCCOC(=O)C1=C(C)NC(C)=C(C(=O)OC(C)C)C1c1cccc([N+](=O)[O-])c1 (stereo unspecified) | 0.989 | –
COc1c(C)c2c(c(O)c1C/C=C(\C)CCC(=O)OCCN1CCOCC1)C(=O)OC2 | 1.37 | –
CN1C(C(=O)Nc2ccccn2)=C(O)c2ccccc2S1(=O)=O | 1.01 | –
O=C(O)c1ccc(-n2nc(-c3ccccc3O)nc2-c2ccccc2O)cc1 | 0.833 | –
C/C(O)=C(\C#N)C(=O)Nc1ccc(C(F)(F)F)cc1 | 0.527 | –
COc1nc(C)cnc1NS(=O)(=O)c1cccnc1-c1ccc(-c2nnco2)cc1 | 0.968 | –
N[C@@H](CC(=O)N1CCn2c(nnc2C(F)(F)F)C1)Cc1cc(F)c(F)cc1F | 1.15 and 1.08 | –
C=Cc1c(C)c2cc3nc(cc4[nH]c(cc5nc(cc1[nH]2)C(C)=C5CCC(=O)O)c(CCC(=O)OC)c4C)C1(C)C3=CC=C(C(=O)OC)C1C(=O)OC (stereo unspecified) | 0.134 | –
CO[C@H]1O[C@H](COS(=O)(=O)O)[C@@H](O[C@@H]2O[C@@H](C(=O)O)[C@@H](O[C@H]3O[C@H](COS(=O)(=O)O)[C@@H](O[C@@H]4O[C@H](C(=O)O)[C@@H](O[C@H]5O[C@H](COS(=O)(=O)O)[C@@H](O)[C@H](O)[C@H]5NS(=O)(=O)O)[C@H](O)[C@H]4O)[C@H](OS(=O)(=O)O)[C@H]3NS(=O)(=O)O)[C@H](O)[C@H]2OS(=O)(=O)O)[C@H](O)[C@H]1NS(=O)(=O)O | – | 0.953
CO/N=C(\C(=O)N[C@@H]1C(=O)N2C(C(=O)O)=C(CSC(=O)c3ccco3)CS[C@H]12)c1csc(N)n1 | 1.19 | –
CN1[C@@H]2CC[C@H]1C[C@@H](OC(c1ccccc1)c1ccccc1)C2 | 1.04 | –
C[C@@H]1O[C@@H](OC[C@H]2O[C@@H](Oc3c(-c4ccc(O)c(O)c4)oc4cc(O)cc(O)c4c3=O)[C@H](O)[C@@H](O)[C@@H]2O)[C@H](O)[C@H](O)[C@H]1O | 1.46 | –
CCCC(=O)Nc1ccc(OCC(O)CNC(C)C)c(C(C)=O)c1 (stereo unspecified) | 0.949 | –
CC(=O)/N=c1/sc(S(N)(=O)=O)nn1C | 1.12 | –

Structure (SMILES) | relative cell density (vehicle: DMSO) | relative cell density (vehicle: Water)
CC1=CC(=O)c2ccccc2C1=O | 1.15 | –
Cc1ccc(C(=O)N(CCCN)[C@@H](c2nc3cc(Cl)ccc3c(=O)n2Cc2ccccc2)C(C)C)cc1 | 0.445 | –
CCCCOC(=O)c1ccc(O)cc1 | 1.11 | –
COCCCOc1cc(C[C@@H](C[C@H](N)[C@@H](O)C[C@H](C(=O)NCC(C)(C)C(N)=O)C(C)C)C(C)C)ccc1OC | 1.3 | –
CCCc1nc2c(C)cc(-c3nc4ccccc4n3C)cc2n1Cc1ccc(-c2ccccc2C(=O)O)cc1 | 0.92 | –
CN(C)c1cc(NC(=O)CNC(C)(C)C)c(O)c2c1CC1CC3C(N(C)C)C(=O)C(C(N)=O)=C(O)C3(O)C(=O)C1=C2O (stereo unspecified) | 1.42 | –
CCCCC1C(=O)N(c2ccccc2)N(c2ccccc2)C1=O | 1.02 | –
COc1cc2ncnc(Nc3ccc(F)c(Cl)c3)c2cc1NC(=O)/C=C/CN1CCCCC1 | 0.859 | –
Cc1ccc(C(=O)C(C)CN2CCCCC2)cc1 (stereo unspecified) | 1.46 | –
CNCC[C@@H](Oc1ccccc1C)c1ccccc1 | 0.0849 | –
CC(C)(O)CNc1nc(Nc2ccnc(C(F)(F)F)c2)nc(-c2cccc(C(F)(F)F)n2)n1 | 1.06 | –
COCCCOc1ccnc(C[S+]([O-])c2nc3ccccc3[nH]2)c1C (stereo unspecified) | 1.27 | –
O=C(O)Cc1cc(I)c(Oc2ccc(O)c(I)c2)c(I)c1 | 1.25 | –
Cc1cc(Nc2ncc(Cl)c(Nc3ccccc3S(=O)(=O)C(C)C)n2)c(OC(C)C)cc1C1CCNCC1 | 1.21 | –
C[C@@H](Oc1cc(-c2cnn(C3CCNCC3)c2)cnc1N)c1c(Cl)ccc(F)c1Cl | 0.865 | –
CC[C@H](C)C(=O)O[C@H]1C[C@H](O)C=C2C=C[C@H](C)[C@H](CC[C@@H](O)C[C@@H](O)CC(=O)O)[C@H]21 | 0.954 | –
Cc1cccn2c(=O)c(-c3nnn[nH]3)cnc12 | – | 0.75
CC1=C(C(=O)O)N2C(=O)[C@@H](NC(=O)[C@H](N)c3ccccc3)[C@H]2SC1 | – | 1.04
CC(C)(C)NCC(O)COc1cccc2c1CC(O)C(O)C2 (stereo unspecified) | 1.21 | –
Nc1ccccc1NC(=O)c1ccc(CNc2nccc(-c3cccnc3)n2)cc1 | 0.606 | –
COc1cc2c(cc1Cc1cccc(Cl)c1F)c(=O)c(C(=O)O)cn2[C@H](CO)C(C)C | 1.07 | –
COc1ccc2c(c1)c(CC(=O)OCC(=O)O)c(C)n2C(=O)c1ccc(Cl)cc1 | 0.957 | –
Cc1nccn1CC1CCc2c(c3ccccc3n2C)C1=O (stereo unspecified) | 0.993 and 1.23 | –

Structure (SMILES) | relative cell density (vehicle: DMSO) | relative cell density (vehicle: Water)
CC(=O)NC[C@H]1CN(c2ccc(N3CCOCC3)c(F)c2)C(=O)O1 | 1.2 | –
CC(=O)O[C@]1(C(C)=O)CC[C@H]2[C@@H]3C=C(C)C4=CC(=O)CC[C@]4(C)[C@H]3CC[C@@]21C | 0.953 | –
C=C1[C@H](CO)[C@@H](O)C[C@@H]1n1cnc2c(=O)[nH]c(N)nc21 | 1.24 | –
CN(C)C(=O)c1cc2cnc(Nc3ccc(N4CCNCC4)cn3)nc2n1C1CCCC1 | 1.1 | –
CC/C=C(\C(=O)N[C@@H]1C(=O)N2C(C(=O)OCOC(=O)C(C)(C)C)=C(COC(N)=O)CS[C@H]12)c1csc(N)n1 | 1.19 | –
Cc1c(C)c2c(c(C)c1O)CCC(C)(CCCC(C)CCCC(C)CCCC(C)C)O2 (stereo unspecified) | 1.33 | –
Nc1nc(=O)[nH]cc1F | 1.13 | –
CC[C@@]1(O)C(=O)OCc2c1cc1n(c2=O)Cc2cc3c(CN(C)C)c(O)ccc3nc2-1 | 0.052 | –
CCOC(=O)N[C@@H]1CC[C@@H]2[C@@H](C1)C[C@H]1C(=O)O[C@H](C)[C@H]1[C@H]2/C=C/c1ccc(-c2cccc(F)c2)cn1 | 1.18 | –
Cc1cc(Nc2cc(CN3CCOCC3)c3nc(C)c(Cc4ccc(Cl)cc4F)n3n2)n[nH]1 | 0.888 | –
Nc1nnc(-c2cccc(Cl)c2Cl)c(N)n1 | 1.28 | –
CC(=O)NC(CCC(N)=O)C(=O)O (stereo unspecified) | 1.12 | –
CC(=O)[O-].[K+] | 1.24 | –
CCN1CCC[C@H]1CNC(=O)c1cc(S(N)(=O)=O)ccc1OC | 1.12 | –
Nc1ccc(S(N)(=O)=O)cc1 | 1.21 | –
CCOc1nc2cccc(C(=O)OC(C)OC(=O)OC3CCCCC3)c2n1Cc1ccc(-c2ccccc2-c2nn[nH]n2)cc1 (stereo unspecified) | 1.33 | –
CCCNS(=O)(=O)Nc1ncnc(OCCOc2ncc(Br)cn2)c1-c1ccc(Br)cc1 | 1.03 | –
CC[C@]12CCCN3CCc4c(n(c5ccccc45)[C@@](O)(C(=O)OC)C1)[C@@H]32 | – | 0.73
CCOC(=O)c1ccc(C#Cc2ccc3c(c2)C(C)(C)CCS3)nc1 | 1.14 | –
CC(C)(C)C#Cc1cc(N(C(=O)[C@H]2CC[C@H](C)CC2)[C@H]2CC[C@H](O)CC2)c(C(=O)O)s1 | 1.33 | –
CCC(C)(C)c1ccc(CC(C)CN2C[C@@H](C)O[C@@H](C)C2)cc1 (stereo partly specified) | 0.95 | –
O=c1[nH]c(=O)n([C@H]2C[C@H](O)[C@@H](CO)O2)cc1/C=C/Br | 1.51 | –
